From the supplement of paper PMC6411743
± gives the standard deviation of the averaged measurements. The entries are a selection whose mix differs from that of the whole data set. Most entries show no effect beyond the scatter of the controls.

The chains behind the UniProt entries cited, without tags or fusion partners. Where a name states a change or a piece, a line headed by the entry shows the natural chain unless it says otherwise.
UniProt Q5SWX8: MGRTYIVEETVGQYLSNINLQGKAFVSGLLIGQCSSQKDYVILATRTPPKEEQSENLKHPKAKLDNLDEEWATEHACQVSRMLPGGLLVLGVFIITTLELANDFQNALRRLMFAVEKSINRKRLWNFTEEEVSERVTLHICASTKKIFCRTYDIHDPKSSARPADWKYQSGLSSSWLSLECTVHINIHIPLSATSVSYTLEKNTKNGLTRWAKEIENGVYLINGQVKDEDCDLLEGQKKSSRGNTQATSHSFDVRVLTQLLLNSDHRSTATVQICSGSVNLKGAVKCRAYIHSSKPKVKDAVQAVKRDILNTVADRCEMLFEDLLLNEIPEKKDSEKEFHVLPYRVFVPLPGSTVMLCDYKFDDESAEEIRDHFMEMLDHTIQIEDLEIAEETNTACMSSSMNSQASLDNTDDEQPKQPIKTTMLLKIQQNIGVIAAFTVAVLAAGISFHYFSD
UniProt Q5SRI9: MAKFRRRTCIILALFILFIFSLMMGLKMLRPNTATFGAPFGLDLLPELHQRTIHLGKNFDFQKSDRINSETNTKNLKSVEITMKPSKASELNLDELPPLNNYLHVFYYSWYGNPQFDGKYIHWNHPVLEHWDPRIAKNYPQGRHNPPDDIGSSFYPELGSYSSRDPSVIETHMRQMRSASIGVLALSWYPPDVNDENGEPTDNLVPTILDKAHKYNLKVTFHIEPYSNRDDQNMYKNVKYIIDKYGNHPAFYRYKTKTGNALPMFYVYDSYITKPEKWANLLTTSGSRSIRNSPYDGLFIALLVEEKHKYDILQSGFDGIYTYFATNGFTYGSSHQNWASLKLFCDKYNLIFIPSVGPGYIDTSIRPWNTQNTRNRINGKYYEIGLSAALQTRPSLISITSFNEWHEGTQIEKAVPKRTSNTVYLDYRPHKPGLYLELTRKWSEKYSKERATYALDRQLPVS
UniProt Q5JS37: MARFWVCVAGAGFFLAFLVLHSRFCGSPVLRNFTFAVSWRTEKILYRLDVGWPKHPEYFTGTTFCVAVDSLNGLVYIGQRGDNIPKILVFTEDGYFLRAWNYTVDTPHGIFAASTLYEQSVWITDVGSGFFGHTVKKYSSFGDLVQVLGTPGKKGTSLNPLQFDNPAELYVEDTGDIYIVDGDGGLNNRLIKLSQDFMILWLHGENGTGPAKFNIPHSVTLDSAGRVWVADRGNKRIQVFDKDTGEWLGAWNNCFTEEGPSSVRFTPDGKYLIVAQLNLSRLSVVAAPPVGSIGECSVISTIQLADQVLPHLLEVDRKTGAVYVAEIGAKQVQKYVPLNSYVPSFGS
UniProt Q53QZ3: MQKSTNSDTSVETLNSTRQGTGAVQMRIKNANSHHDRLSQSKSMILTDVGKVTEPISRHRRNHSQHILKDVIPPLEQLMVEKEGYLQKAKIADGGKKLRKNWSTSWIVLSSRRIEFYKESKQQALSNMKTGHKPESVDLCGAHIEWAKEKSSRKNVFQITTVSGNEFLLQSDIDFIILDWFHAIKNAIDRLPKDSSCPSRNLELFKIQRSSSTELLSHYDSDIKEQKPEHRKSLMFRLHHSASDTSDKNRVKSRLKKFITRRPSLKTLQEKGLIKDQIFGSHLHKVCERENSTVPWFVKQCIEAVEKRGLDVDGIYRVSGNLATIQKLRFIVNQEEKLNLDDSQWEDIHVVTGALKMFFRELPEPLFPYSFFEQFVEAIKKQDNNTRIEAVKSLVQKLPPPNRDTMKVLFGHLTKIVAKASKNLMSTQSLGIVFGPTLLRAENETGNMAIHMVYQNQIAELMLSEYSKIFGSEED
UniProt Q5RKV6, whole entry: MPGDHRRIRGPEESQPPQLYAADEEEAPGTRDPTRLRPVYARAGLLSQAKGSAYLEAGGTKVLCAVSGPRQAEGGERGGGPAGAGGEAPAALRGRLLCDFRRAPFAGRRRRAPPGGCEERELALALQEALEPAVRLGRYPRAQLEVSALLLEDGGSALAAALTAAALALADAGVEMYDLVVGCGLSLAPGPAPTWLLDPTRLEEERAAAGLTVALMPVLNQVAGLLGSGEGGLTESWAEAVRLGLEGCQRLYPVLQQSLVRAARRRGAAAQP
UniProt Q6IA86: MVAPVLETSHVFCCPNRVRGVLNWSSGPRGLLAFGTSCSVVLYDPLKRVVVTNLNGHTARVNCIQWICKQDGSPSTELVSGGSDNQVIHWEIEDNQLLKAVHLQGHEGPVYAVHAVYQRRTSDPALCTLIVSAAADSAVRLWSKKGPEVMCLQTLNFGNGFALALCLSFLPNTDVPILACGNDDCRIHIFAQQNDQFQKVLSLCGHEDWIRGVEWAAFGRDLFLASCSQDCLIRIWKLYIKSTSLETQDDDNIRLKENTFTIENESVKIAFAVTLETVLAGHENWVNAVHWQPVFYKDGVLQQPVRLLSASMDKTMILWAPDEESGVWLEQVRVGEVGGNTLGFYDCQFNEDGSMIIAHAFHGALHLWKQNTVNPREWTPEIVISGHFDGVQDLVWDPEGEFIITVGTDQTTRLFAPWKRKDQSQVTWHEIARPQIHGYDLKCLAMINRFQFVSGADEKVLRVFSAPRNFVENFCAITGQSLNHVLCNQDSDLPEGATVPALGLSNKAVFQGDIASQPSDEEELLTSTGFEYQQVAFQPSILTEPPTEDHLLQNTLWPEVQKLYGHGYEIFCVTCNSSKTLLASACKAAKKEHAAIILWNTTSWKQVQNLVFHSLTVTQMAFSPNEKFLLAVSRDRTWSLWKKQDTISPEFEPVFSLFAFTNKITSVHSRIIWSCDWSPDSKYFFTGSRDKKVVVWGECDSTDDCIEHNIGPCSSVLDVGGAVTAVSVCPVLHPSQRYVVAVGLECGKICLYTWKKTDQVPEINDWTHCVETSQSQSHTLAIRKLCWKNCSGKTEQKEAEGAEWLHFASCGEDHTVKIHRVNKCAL
UniProt Q66PJ3: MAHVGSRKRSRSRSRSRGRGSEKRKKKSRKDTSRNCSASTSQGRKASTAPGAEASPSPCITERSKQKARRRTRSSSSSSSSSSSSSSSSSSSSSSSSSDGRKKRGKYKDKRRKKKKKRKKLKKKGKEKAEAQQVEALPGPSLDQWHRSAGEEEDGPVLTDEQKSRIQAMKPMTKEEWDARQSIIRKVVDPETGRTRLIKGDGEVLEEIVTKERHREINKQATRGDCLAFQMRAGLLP
UniProt Q5T011: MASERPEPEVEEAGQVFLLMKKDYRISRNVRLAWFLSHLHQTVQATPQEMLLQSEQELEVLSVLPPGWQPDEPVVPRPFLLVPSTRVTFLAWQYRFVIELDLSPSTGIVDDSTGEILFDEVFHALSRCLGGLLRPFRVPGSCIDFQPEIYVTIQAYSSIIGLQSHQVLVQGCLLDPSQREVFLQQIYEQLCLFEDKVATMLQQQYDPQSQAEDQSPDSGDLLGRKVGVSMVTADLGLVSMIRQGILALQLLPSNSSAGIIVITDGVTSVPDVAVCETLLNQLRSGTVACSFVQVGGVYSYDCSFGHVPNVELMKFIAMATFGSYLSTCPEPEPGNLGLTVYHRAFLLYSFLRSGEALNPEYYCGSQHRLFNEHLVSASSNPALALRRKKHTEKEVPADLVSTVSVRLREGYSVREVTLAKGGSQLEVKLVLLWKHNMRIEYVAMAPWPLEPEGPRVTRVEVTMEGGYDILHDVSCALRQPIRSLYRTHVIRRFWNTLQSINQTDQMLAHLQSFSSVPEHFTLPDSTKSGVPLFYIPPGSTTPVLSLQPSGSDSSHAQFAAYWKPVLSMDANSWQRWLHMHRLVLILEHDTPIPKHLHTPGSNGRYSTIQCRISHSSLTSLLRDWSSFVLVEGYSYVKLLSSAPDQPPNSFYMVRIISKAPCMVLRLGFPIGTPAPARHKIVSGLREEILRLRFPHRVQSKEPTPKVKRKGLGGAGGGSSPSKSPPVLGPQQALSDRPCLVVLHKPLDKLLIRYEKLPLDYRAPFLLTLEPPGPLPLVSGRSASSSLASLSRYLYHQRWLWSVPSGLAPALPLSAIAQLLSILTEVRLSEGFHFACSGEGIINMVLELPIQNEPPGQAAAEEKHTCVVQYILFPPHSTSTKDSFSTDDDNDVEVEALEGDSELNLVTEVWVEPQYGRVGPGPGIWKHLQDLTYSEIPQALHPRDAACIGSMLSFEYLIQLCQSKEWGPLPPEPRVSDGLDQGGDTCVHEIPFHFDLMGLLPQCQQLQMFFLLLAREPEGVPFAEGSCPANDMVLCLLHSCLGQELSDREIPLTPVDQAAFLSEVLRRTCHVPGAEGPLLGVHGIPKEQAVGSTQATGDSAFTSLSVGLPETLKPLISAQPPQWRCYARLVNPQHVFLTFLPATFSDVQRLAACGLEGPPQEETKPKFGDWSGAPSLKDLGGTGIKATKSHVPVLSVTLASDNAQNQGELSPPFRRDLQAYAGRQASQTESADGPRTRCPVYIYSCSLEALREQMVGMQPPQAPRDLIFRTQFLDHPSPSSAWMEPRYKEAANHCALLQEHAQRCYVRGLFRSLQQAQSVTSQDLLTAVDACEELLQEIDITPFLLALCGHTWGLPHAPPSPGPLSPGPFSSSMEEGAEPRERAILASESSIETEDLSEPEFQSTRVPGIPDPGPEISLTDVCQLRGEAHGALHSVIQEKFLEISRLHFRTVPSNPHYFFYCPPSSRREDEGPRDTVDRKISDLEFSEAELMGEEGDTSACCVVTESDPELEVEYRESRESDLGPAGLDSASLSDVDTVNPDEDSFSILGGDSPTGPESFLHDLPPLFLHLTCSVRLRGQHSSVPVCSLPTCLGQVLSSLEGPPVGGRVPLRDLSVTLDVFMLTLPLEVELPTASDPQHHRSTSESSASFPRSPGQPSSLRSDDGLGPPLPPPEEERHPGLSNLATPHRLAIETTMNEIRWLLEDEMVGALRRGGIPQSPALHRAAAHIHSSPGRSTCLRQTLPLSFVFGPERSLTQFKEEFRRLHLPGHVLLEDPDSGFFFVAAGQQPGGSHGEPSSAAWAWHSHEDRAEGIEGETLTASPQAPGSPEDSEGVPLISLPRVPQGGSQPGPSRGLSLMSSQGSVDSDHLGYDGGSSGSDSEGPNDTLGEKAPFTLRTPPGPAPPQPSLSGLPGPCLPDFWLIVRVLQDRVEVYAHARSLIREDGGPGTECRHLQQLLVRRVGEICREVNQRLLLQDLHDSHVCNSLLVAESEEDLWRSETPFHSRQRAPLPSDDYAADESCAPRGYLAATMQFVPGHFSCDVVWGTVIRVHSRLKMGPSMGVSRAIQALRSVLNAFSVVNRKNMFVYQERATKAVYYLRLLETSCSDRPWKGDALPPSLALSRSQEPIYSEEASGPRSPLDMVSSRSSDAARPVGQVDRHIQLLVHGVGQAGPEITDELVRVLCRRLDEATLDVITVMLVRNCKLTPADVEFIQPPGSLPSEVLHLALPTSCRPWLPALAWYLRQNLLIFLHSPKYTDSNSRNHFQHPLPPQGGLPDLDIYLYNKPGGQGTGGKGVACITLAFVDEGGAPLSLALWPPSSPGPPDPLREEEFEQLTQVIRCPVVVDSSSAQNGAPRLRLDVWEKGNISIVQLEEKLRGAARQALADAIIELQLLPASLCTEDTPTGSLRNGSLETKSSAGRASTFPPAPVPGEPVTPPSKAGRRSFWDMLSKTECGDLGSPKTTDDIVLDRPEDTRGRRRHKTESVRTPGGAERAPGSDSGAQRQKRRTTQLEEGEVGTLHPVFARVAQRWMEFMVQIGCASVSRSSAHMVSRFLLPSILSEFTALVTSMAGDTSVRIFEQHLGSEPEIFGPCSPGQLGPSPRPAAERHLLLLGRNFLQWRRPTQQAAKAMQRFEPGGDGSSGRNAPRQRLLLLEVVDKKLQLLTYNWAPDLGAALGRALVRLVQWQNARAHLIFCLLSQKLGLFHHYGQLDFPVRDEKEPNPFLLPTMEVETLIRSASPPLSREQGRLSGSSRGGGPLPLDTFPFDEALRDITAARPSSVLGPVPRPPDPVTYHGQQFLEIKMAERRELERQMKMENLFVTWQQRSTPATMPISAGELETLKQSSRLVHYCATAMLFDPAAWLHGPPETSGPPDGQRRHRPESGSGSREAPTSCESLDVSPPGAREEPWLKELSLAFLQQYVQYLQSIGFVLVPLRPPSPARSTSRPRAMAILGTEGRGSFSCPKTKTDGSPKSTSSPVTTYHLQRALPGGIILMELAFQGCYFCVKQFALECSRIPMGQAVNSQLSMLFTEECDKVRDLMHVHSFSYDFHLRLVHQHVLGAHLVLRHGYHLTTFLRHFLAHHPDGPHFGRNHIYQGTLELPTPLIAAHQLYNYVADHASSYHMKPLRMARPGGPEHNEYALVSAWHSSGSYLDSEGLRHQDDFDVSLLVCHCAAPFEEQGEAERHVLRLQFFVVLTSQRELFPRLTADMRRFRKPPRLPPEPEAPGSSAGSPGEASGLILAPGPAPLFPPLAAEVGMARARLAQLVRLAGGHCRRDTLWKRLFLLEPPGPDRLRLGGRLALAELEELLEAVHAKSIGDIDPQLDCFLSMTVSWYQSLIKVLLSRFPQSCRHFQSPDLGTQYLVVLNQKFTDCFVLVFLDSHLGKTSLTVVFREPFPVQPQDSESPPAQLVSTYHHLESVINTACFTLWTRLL

Compound: Nc1ncnc2c1ncn2[C@@H]1O[C@H](COP(=O)(O)OP(=O)(O)OP(=O)(O)O)[C@@H](O)[C@H]1O [adenosine triphosphate]
Test: NP40-soluble protein abundance relative to vehicle (solubility fold change) (ratio); higher = more soluble protein in presence of ATP
Outline: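 Data come from three independent experiments in which Dounce-homogenised Jurkat crude lysate was treated at eight concentrations from 0.1 to 10 mM. Treatment ran 10 min at room temperature and then 3 min at 37 °C, after which 0.8% NP40 and benzonase were added for 60 min at 4 °C before ultracentrifugation. The supernatant underwent TMT labelling and LC-MS/MS, and vsn-normalised intensities were expressed as fold change against the detergent-processed vehicle in each replicate.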

Target	NP40-soluble protein abundance (concentration: 0.1mM)	NP40-soluble protein abundance (concentration: 0.5mM)
UniProt Q5SWX8 and related entries	0.965 ± 0.052	1.03 ± 0.039
UniProt Q68CQ4	1.05 ± 0.05	1.07 ± 0.075
UniProt Q53TN4 and related entries	1.04 ± 0.086	1.04 ± 0.094
UniProt Q5T3J3	0.962 ± 0.042	1.02 ± 0.075
UniProt Q5T8I3 and related entries	1 ± 0.064	1.01 ± 0.075
UniProt Q6IAA8	0.917 ± 0.063	0.875 ± 0.12
LPCAT4 (UniProt Q643R3)	0.999 ± 0.035	1 ± 0.073
NOM1 (UniProt Q5C9Z4)	0.997 ± 0.024	1.07 ± 0.06
MRPL54 (UniProt Q6P161)	0.983 ± 0.049	0.998 ± 0.039
Q5JVZ5 and related entries (UniProt Q96JJ3)	1.03 ± 0.061	1.08 ± 0.083
FAM91A1 (UniProt Q658Y4)	1.022 ± 0.0053	1.04 ± 0.018
UniProt Q5XUX1 and related entries	1.08 ± 0.042	1.01 ± 0.031
TAPT1 (UniProt Q6NXT6)	1.04 ± 0.035	1.03 ± 0.049
Q5LJA5 and related entries (UniProt Q9Y5K5)	0.993 ± 0.047	0.985 ± 0.033
CMPK2 (UniProt Q5EBM0)	1.04 ± 0.063	1.03 ± 0.055
SLC27A4 (UniProt Q6P1M0)	1 ± 0.024	1.02 ± 0.036
UniProt Q5JPF3	1.01 ± 0.028	0.958 ± 0.097
UniProt Q5VIR6-4	0.997 ± 0.01	0.994 ± 0.033
AGK (UniProt Q53H12)	1.01 ± 0.044	1.02 ± 0.046
RABL3 (UniProt Q5HYI8)	1.06 ± 0.019	1.04 ± 0.098
NAIF1 (UniProt Q69YI7)	1.03 ± 0.19	0.917 ± 0.029
Q5T5C7 (UniProt P49591)	1.03 ± 0.077	0.997 ± 0.1
UniProt Q4V328 and related entries	0.995 ± 0.017	0.982 ± 0.036
CDKAL1 (UniProt Q5VV42)	1 ± 0.061	1.02 ± 0.036

Target	NP40-soluble protein abundance (concentration: 0.1mM)	NP40-soluble protein abundance (concentration: 0.5mM)
HABP4 (UniProt Q5JVS0)	1.08 ± 0.36	1.53 ± 0.14
MANEA (UniProt Q5SRI9)	1.033 ± 0.0048	0.959 ± 0.095
AARS2 (UniProt Q5JTZ9)	1.05 ± 0.06	1.06 ± 0.036
UniProt Q5W0U4 and related entries	1.006 ± 0.0073	1.06 ± 0.03
UniProt Q69YN4 and related entries	1.02 ± 0.044	1.06 ± 0.056
UniProt Q5FBB7 and related entries	0.96 ± 0.041	0.9308 ± 0.007
WDR73 (UniProt Q6P4I2)	1.09 ± 0.094	1.05 ± 0.1
Q5TBM3 and related entries (UniProt Q92598)	0.988 ± 0.058	1.01 ± 0.076
SFXN4 (UniProt Q6P4A7)	0.999 ± 0.058	0.984 ± 0.046
UniProt Q5T5Y3 and related entries	1.01 ± 0.06	1.01 ± 0.084
UniProt Q5JS37 and related entries	1.01 ± 0.031	1.02 ± 0.032
UniProt Q5JTJ3 and related entries	1.41 ± 0.57	0.9034 ± 0.0057
ARHGAP15 (UniProt Q53QZ3)	1.04 ± 0.056	1.11 ± 0.051
ANKRD54 (UniProt Q6NXT1)	0.92 ± 0.1	0.901 ± 0.052
Q5TH58 and related entries (UniProt Q9H6K1)	1.03 ± 0.061	1.03 ± 0.068
UniProt Q5T0N5-3|Q5T0N5-4	1.02 ± 0.014	1.02 ± 0.028
METTL2B (UniProt Q6P1Q9)	1.01 ± 0.053	1.04 ± 0.074
UniProt Q5VSL9	0.969 ± 0.04	0.9792 ± 0.0057
UniProt Q4KMQ2 and related entries	0.9927 ± 0.0041	0.981 ± 0.037
NIPBL (UniProt Q6KC79)	1.028 ± 0.0066	1.1 ± 0.049
RARS2 (UniProt Q5T160)	1.05 ± 0.065	0.995 ± 0.062
SNRNP48 (UniProt Q6IEG0)	0.946 ± 0.16	1.2 ± 0.1
UniProt Q5R372 and related entries	1.03 ± 0.014	1.02 ± 0.027
UniProt Q6NYC1 and related entries	1.072 ± 0.0039	1.06 ± 0.051

Target	NP40-soluble protein abundance (concentration: 0.1mM)	NP40-soluble protein abundance (concentration: 0.5mM)
UniProt Q6GYQ0 and related entries	0.998 ± 0.025	0.972 ± 0.061
UniProt Q5U5Q3 and related entries	0.86 ± 0.086	0.972 ± 0.044
RPL7L1 (UniProt Q6DKI1)	0.997 ± 0.062	0.964 ± 0.032
Q5T063 and related entries (UniProt Q9NZJ6)	0.966 ± 0.012	1.08 ± 0.074
UniProt Q4LE39 and related entries	0.974 ± 0.018	1.02 ± 0.075
UniProt Q68DK2 and related entries	0.932 ± 0.038	0.984 ± 0.053
INTS5 (UniProt Q6P9B9)	1.12 ± 0.15	1.1 ± 0.16
UniProt Q6NXE6 and related entries	0.98 ± 0.018	0.947 ± 0.033
UniProt Q5JPI3 and related entries	1.01 ± 0.16	0.9 ± 0.14
UniProt Q5JSP0 and related entries	0.997 ± 0.012	1.02 ± 0.026
ZNF318 (UniProt Q5VUA4)	0.975 ± 0.11	1.04 ± 0.09
OGFOD2 (UniProt Q6N063)	1.06 ± 0.11	1.02 ± 0.15
RIF1 (UniProt Q5UIP0)	0.991 ± 0.024	1.05 ± 0.048
UniProt Q5BJH7 and related entries	0.643 ± 0.5	1.02 ± 0.015
EXOSC6 (UniProt Q5RKV6)	0.965 ± 0.076	0.932 ± 0.034
REEP3 (UniProt Q6NUK4)	1.09 ± 0.052	1.22 ± 0.16
XAF1 (UniProt Q6GPH4)	1.02 ± 0.017	1.02 ± 0.035
UniProt Q53GT1 and related entries	0.977 ± 0.063	1.01 ± 0.046
TWF2 (UniProt Q6IBS0)	1.02 ± 0.086	1.05 ± 0.053
HSD17B12 (UniProt Q53GQ0)	0.996 ± 0.037	1 ± 0.024
DHX57 (UniProt Q6P158)	1.07 ± 0.045	1.05 ± 0.09
UniProt Q6ICL3 and related entries	1.1 ± 0.19	1.04 ± 0.15
MRPL14 (UniProt Q6P1L8)	0.962 ± 0.081	0.977 ± 0.15
UniProt Q6IA86 and related entries	1.08 ± 0.05	1.05 ± 0.029

Target	NP40-soluble protein abundance (concentration: 0.1mM)	NP40-soluble protein abundance (concentration: 0.5mM)
RSBN1L (UniProt Q6PCB5)	1.06 ± 0.044	1.25 ± 0.057
UniProt Q58EX7 and related entries	0.895 ± 0.066	1.02 ± 0.083
UniProt Q5T6F0	1.01 ± 0.031	0.947 ± 0.056
CROCC (UniProt Q5TZA2)	0.974 ± 0.073	0.941 ± 0.051
UniProt Q63HQ0	1.01 ± 0.038	0.966 ± 0.02
UniProt Q6N043 and related entries	1.06 ± 0.054	1.06 ± 0.05
UniProt Q66PJ3 and related entries	1.03 ± 0.046	1.09 ± 0.048
Q5JTV1 and related entries (UniProt Q9UKD1)	1.06 ± 0.033	1.08 ± 0.079
UniProt Q6P587 and related entries	0.964 ± 0.02	1.04 ± 0.016
Q5VZM2-2|Q7L523 (UniProt Q7L523+Q5VZM2)	1.16 ± 0.13	1.13 ± 0.066
UniProt Q5VWP2	1.04 ± 0.04	0.966 ± 0.041
SIGIRR (UniProt Q6IA17)	0.994 ± 0.016	1.02 ± 0.06
SLC25A24 (UniProt Q6NUK1)	0.888 ± 0.089	0.919 ± 0.054
CEP55 (UniProt Q53EZ4)	0.967 ± 0.068	0.988 ± 0.022
Q5TZT0 and related entries (UniProt Q9NSU2)	0.991 ± 0.028	0.93 ± 0.081
UniProt Q5M775 and related entries	0.956 ± 0.019	0.933 ± 0.044
PHLDB3 (UniProt Q6NSJ2)	1.01 ± 0.11	0.994 ± 0.095
UniProt Q5TKA1 and related entries	1.02 ± 0.036	1.02 ± 0.033
TTC27 (UniProt Q6P3X3)	1.04 ± 0.061	1.03 ± 0.054
UniProt Q6IE81 and related entries	1.12 ± 0.26	1.11 ± 0.087
UniProt Q6P9B6	1.01 ± 0.055	1.05 ± 0.06
OCIAD2 (UniProt Q56VL3)	0.929 ± 0.052	0.895 ± 0.084
PRPF38B (UniProt Q5VTL8)	1.1 ± 0.018	1.25 ± 0.1
SAMD9 (UniProt Q5K651)	1.06 ± 0.089	1.06 ± 0.087

Target	NP40-soluble protein abundance (concentration: 0.1mM)	NP40-soluble protein abundance (concentration: 0.5mM)
RFWD3 (UniProt Q6PCD5)	0.956 ± 0.043	1.07 ± 0.08
UniProt Q6NT76 and related entries	0.953 ± 0.068	0.935 ± 0.033
UniProt Q5T011 and related entries	0.946 ± 0.024	0.942 ± 0.097
UniProt Q69YH5 and related entries	0.992 ± 0.025	0.958 ± 0.028
UniProt Q6PD74 and related entries	0.985 ± 0.045	0.99 ± 0.072
UniProt Q5T0D9 and related entries	1.09 ± 0.15	1.01 ± 0.16
Q5STZ8 and related entries (UniProt Q8NE71)	1.04 ± 0.062	1.04 ± 0.034
SNX30 (UniProt Q5VWJ9)	1.03 ± 0.049	0.942 ± 0.012
CPTP (UniProt Q5TA50)	1.01 ± 0.018	0.985 ± 0.044
Q5TBP9 and related entries (UniProt Q9BX40)	0.974 ± 0.028	1.06 ± 0.04
UniProt Q5THK1 and related entries	0.921 ± 0.12	0.892 ± 0.085
GLT8D1 (UniProt Q68CQ7)	0.968 ± 0.055	0.999 ± 0.011
Q5TH30 and related entries (UniProt Q9UGV2)	1.02 ± 0.04	1.01 ± 0.043
UniProt Q6P1R4 and related entries	1.02 ± 0.045	1.01 ± 0.055
Q5JY65 and related entries (UniProt Q9BZJ0)	1.04 ± 0.033	1.06 ± 0.032
RINT1 (UniProt Q6NUQ1)	1.01 ± 0.097	1.03 ± 0.085
UniProt Q58WW2 and related entries	1.03 ± 0.069	1.024 ± 0.0094
UniProt Q5JTH9 and related entries	0.988 ± 0.029	1.03 ± 0.074
UniProt Q66K14 and related entries	1.03 ± 0.045	1.02 ± 0.029
CDCA8 (UniProt Q53HL2)	1.01 ± 0.13	0.899 ± 0.17
UniProt Q5BKY9 and related entries	1.03 ± 0.057	1.09 ± 0.065
UniProt Q5VW36 and related entries	0.944 ± 0.068	0.9 ± 0.079
UniProt Q5T0B9	1 ± 0.076	0.974 ± 0.076
UniProt Q66K74 and related entries	1 ± 0.02	1 ± 0.049

Some of the entries so far, in CSV form:
Target,NP40-soluble protein abundance (concentration: 0.1mM),NP40-soluble protein abundance (concentration: 0.5mM)
MRPL54 (UniProt Q6P161),0.983 ± 0.049,0.998 ± 0.039
Q5JVZ5 and related entries (UniProt Q96JJ3),1.03 ± 0.061,1.08 ± 0.083
FAM91A1 (UniProt Q658Y4),1.022 ± 0.0053,1.04 ± 0.018
UniProt Q5XUX1 and related entries,1.08 ± 0.042,1.01 ± 0.031
TAPT1 (UniProt Q6NXT6),1.04 ± 0.035,1.03 ± 0.049
Q5LJA5 and related entries (UniProt Q9Y5K5),0.993 ± 0.047,0.985 ± 0.033
CMPK2 (UniProt Q5EBM0),1.04 ± 0.063,1.03 ± 0.055
SLC27A4 (UniProt Q6P1M0),1 ± 0.024,1.02 ± 0.036
UniProt Q5JPF3,1.01 ± 0.028,0.958 ± 0.097
UniProt Q5VIR6-4,0.997 ± 0.01,0.994 ± 0.033
AGK (UniProt Q53H12),1.01 ± 0.044,1.02 ± 0.046
RABL3 (UniProt Q5HYI8),1.06 ± 0.019,1.04 ± 0.098
NAIF1 (UniProt Q69YI7),1.03 ± 0.19,0.917 ± 0.029
Q5T5C7 (UniProt P49591),1.03 ± 0.077,0.997 ± 0.1
UniProt Q4V328 and related entries,0.995 ± 0.017,0.982 ± 0.036
CDKAL1 (UniProt Q5VV42),1 ± 0.061,1.02 ± 0.036
HABP4 (UniProt Q5JVS0),1.08 ± 0.36,1.53 ± 0.14
MANEA (UniProt Q5SRI9),1.033 ± 0.0048,0.959 ± 0.095
AARS2 (UniProt Q5JTZ9),1.05 ± 0.06,1.06 ± 0.036
UniProt Q5W0U4 and related entries,1.006 ± 0.0073,1.06 ± 0.03
UniProt Q69YN4 and related entries,1.02 ± 0.044,1.06 ± 0.056
UniProt Q5FBB7 and related entries,0.96 ± 0.041,0.9308 ± 0.007
WDR73 (UniProt Q6P4I2),1.09 ± 0.094,1.05 ± 0.1
Q5TBM3 and related entries (UniProt Q92598),0.988 ± 0.058,1.01 ± 0.076
SFXN4 (UniProt Q6P4A7),0.999 ± 0.058,0.984 ± 0.046
UniProt Q5T5Y3 and related entries,1.01 ± 0.06,1.01 ± 0.084
UniProt Q5JS37 and related entries,1.01 ± 0.031,1.02 ± 0.032
UniProt Q5JTJ3 and related entries,1.41 ± 0.57,0.9034 ± 0.0057
ARHGAP15 (UniProt Q53QZ3),1.04 ± 0.056,1.11 ± 0.051
ANKRD54 (UniProt Q6NXT1),0.92 ± 0.1,0.901 ± 0.052
